In PMC9271913:
These are yes or no findings as the source states them, for the method shown. Binding seen in cells or lysates may run through a third protein. Here binding means that the protein was enriched with, or labelled near, the bait; the list need not be complete.

T1: Retention in endoplasmic reticulum 1 (Rer1), mouse (mouse (endogenous in brain)) (UniProt Q9CQU3)
T1 sequence: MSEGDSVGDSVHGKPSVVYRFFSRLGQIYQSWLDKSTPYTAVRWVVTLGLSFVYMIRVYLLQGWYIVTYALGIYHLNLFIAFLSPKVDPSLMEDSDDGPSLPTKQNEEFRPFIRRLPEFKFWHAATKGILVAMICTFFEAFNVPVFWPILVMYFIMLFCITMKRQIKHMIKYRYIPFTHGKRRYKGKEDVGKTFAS

B1: Sideroflexin-3 (protein, UniProt Q91V61 1-321)
chain: MGDLPLNINIQEPRWDQSTFLGRARHFFTVTDPRNLLLSGEQLEASRNIVQNYRAGVATPGLTEDQLWRAKYVYDSAFHPDTGEKVVLIGRMSAQVPMNMTITGCMLTFYRKTPTVVFWQWVNQSFNAIVNYSNRSGDAPITVQQLGTAYVSATTGAVATALGLKSLTKHLPPLVGRFVPFAAVAAANCINIPLMRQRELQVGIPVTDEAGQRLGHSVTAAKQGIFQVVISRIGMAIPAMAIPPVIMNTLEKKDFLKRRPWLGAPLQVGLVGFCLVFATPLCCALFPQRSSIHVTRLEPELRAQIQAQNPSIDVVYYNKGL
B2: KCC2a-S25 variant 1 (protein, UniProt Q91V14-1 1-1138)
chain: MSRRFTVTSLPPAASAASADPESRRHSVADPRRLPREDVKGDGNPKESSPFINSTDTEKGREYDGRNMALFEEEMDTSPMVSSLLSGLANYTNLPQGSREHEEAENNEGGKKKPVQAPRMGTFMGVYLPCLQNIFGVILFLRLTWVVGIAGIMESFCMVFICCSCTMLTAISMSAIATNGVVPAGGSYYMISRSLGPEFGGAVGLCFYLGTTFAGAMYILGTIEILLAYLFPAMAIFKAEDASGEAAAMLNNMRVYGTCVLTCMATVVFVGVKYVNKFALVFLGCVILSILAIYAGVIKSAFDPPNFPICLLGNRTLSRHGFDVCAKLAWEGNETVTTRLWGLFCSSRLLNATCDEYFTRNNVTEIQGIPGAASGLIKENLWSSYLTKGVIVERRGMPSVGLADGTPVDMDHPYVFSDMTSYFTLLVGIYFPSVTGIMAGSNRSGDLRDAQKSIPTGTILAIATTSAVYISSVVLFGACIEGVVLRDKFGEAVNGNLVVGTLAWPSPWVIVIGSFFSTCGAGLQSLTGAPRLLQAISRDGIVPFLQVFGHGKANGEPTWALLLTACICEIGILIASLDEVAPILSMFFLMCYMFVNLACAVQTLLRTPNWRPRFRYYHWTLSFLGMSLCLALMFICSWYYALVAMLIAGLIYKYIEYRGAEKEWGDGIRGLSLSAARYALLRLEEGPPHTKNWRPQLLVLVRVDQDQNVVHPQLLSLTSQLKAGKGLTIVGSVLEGTFLDNHPQAQRAEESIRRLMEAEKVKGFCQVVISSNLRDGVSHLIQSGGLGGLQHNTVLVGWPRNWRQKEDHQTWRNFIELVRETTAGHLALLVTKNVSMFPGNPERFSEGSIDVWWIVHDGGMLMLLPFLLRHHKVWRKCKMRIFTVAQMDDNSIQMKKDLTTFLYHLRITAEVEVVEMHESDISAYTYEKTLVMEQRSQILKQMHLTKNEREREIQSITDESRGSIRRKNPANPRLRLNVPEETACDNEEKPEEEVQLIHDQSAPSCPSSSPSPGEEPEGERETDPEVHLTWTKDKSVAEKNKGPSPVSSEGIKDFFSMKPEWENLNQSNVRRMHTAVRLNEVIVNKSRDAKLVLLNMPGPPRNRNGDENYMEFLEVLTEQLDRVMLVRGGGREVITIYS
B3: Succinate-CoA ligase subunit beta (Fragment) (protein, UniProt Q9Z2I9 54-463)
chain: SLHEYLSMELLQEAGVSVPKGFVAKSSDEAYAIAKKLGSKDVVIKAQVLAGGRGKGTFTSGLKGGVKIVFSPEEAKAVSSQMIGQKLITKQTGEKGRICNQVLVCERKYPRREYYFAITMERSFQGPVLIGSAQGGVNIEDVAAENPEAIVKEPIDIVEGIKKEQAVTLAQKMGFPSNIVDSAAENMIKLYNLFLKYDATMVEINPMVEDSDGKVLCMDAKINFDSNSAYRQKKIFDLQDWSQEDERDKEAANADINYIGLDGSIGCLVNGAGLAMATMDIIKLHGGTPANFLDVGGGATVQQVTEAFKLITSDKKVQAILVNIFGGIMRCDVIAQGIVMAVKDLEIRIPVVVRLQGTRVDDAKALIADSGLKILACDDLDEAAKMVVKLSEIVTLAKEAHVDVKFQLPI
B4: Synaptosomal-associated protein 47 (protein, UniProt Q8R570 1-413)
chain: MSSDMRVHSWSCSYYLDLEKQWVSGKLTLTPHSLKFIVEKTEEVLVGLPLSSIIEIRKESSLFIFGAITVLEKGQTKHWFSSLQPSRNVVFNVIEHFWRELLLSQPGTAANIPSHVTRGQELIGLMANSQKRMEDTAKDLQQQSEQLDSVLKGLEKMESDLDVADRLLTELETPSWWPFGSKFWKMPAEENLKEGVSSTCEPFGKEGVVITVPAIISERAESHSKLGKLTVLVSALEIYDSCSLLLHRFEKEDVDDIKVHSPYEVSIRQRFIGKPDVAYQLISAKMPEVIPILEVQFSSKIELLEDALVLRNKVFASSAERHAASRPKGCTPHRELPTGGQEGEQLQLQKNLPLFSEGEAQELTQILSKMKGLALDTEAELERQDAALDGITVAVDRATLNVDKQNRRMRKLM

What follows are binders tested against T1, Retention in endoplasmic reticulum 1 (Rer1), mouse (mouse (endogenous in brain)) (assay: affinity purification with mass spectrometry; anti-RER1 immunoprecipitation of hippocampus lysates (gentle RIPA lysis buffer) of PTZ-induced Nedd4-2+/- and wild-type mice, LC-MS/MS; IgG-precipitated proteins subtracted; proteins present in all four replicates of a group defined as positive).

| binding | Binder |
| --- | --- |
| binds | B1 |
| binds | B2 |
| binds | B3 |
| binds | B4 |
